Measurements from PubChem BioAssay AID540256 (National Center for Advancing Translational Sciences (NCATS), 2011).
Among all 300,000 compounds or so, about 3,700 (1.2%) were called active. The shares of active, inactive and inconclusive entries below differ from those in the screen. Calls come from the whole dose curve; tested in HEK293 cells. Where the call is inconclusive, the potency comes from a doubtful curve fit.

assay: qHTS for Inhibitors of binding or entry into cells for Lassa Virus; conditions: Lassa virus pseudotype entry inhibition, cell reporter; series mostly up to 37.9 µM; note: nearly all actives have a fitted effect of over 50% in size
Potency is the fitted concentration of half-maximal effect.

Compound | Potency
COc1cc(-c2nnc(SCC(=O)N3CCCc4ccccc43)o2)cc(OC)c1OC | inconclusive: 12.6 µM [inhibitor, partial curve, poor fit]
COc1ccc(N(CC(=O)Nc2ccc(Cl)cc2C)S(=O)(=O)c2ccccc2)c(OC)c1 | inconclusive: 35.5 µM [inhibitor, single point]
COc1ccc(-c2[nH]ncc2/C=N\NC(=O)c2ccc(C(C)(C)C)cc2)cc1OC | inactive
Cc1ccc(C(=O)Nc2ccc([N+](=O)[O-])cn2)o1 | inactive
CCOC(=O)C1=C(C)NC(=O)NC1c1cccc(O)c1 (stereo not drawn) | inactive
CC(=O)Nc1ccc(N/C=C/C(=O)c2ccc(Cl)cc2)cc1 | inactive
CC1=CN2C(=N)/C(=C/c3ccco3)C(=O)N=C2S1 | inconclusive: 2.06 µM [activator, full curve, poor fit]
CCOC(=O)C1=C(c2ccc(OC)cc2)C(=O)c2ccccc2C1=O | inconclusive: 3.55 µM [inhibitor, full curve, poor fit]
CN(C(=O)COc1ccc(Cl)cc1Cl)c1nnc(C23CC4CC(CC(C4)C2)C3)s1 | inactive
COc1ccc(OC)c(CCNC(=O)C(C)n2nc(C)c3c(C)n(-c4ccc(C)cc4)nc3c2=O)c1 (stereo not drawn) | inactive
CCn1c(=O)[nH]c2cc(C(=O)Nc3cc(C)cc(C)c3)ccc2c1=O | inconclusive: 35.5 µM [inhibitor, partial curve, poor fit]
COCCCn1c(C(C)C)nc2oc3cc(OC)ccc3c(=O)c2c1=O | inconclusive: 16.4 µM [activator, single point]
O=C(C=Cc1ccccc1)c1cc(Br)ccc1O | inconclusive: 35.5 µM [inhibitor, single point]
Cc1cccc(C)c1OCC(=O)Nc1cccc(S(=O)(=O)N2CCCC2)c1 | inconclusive: 11.2 µM [inhibitor, partial curve, poor fit]
Cc1cc(SCC(=O)NCc2ccccc2)nc(=O)[nH]1 | inactive
Cc1cc(NC(=O)COC(=O)c2oc3c(ccc4ccccc43)c2C)no1 | inconclusive: 11.2 µM [inhibitor, partial curve]
CCCCNC(=O)CNC(=S)N(Cc1ccccc1)Cc1cccs1 | inconclusive: 25.1 µM [inhibitor, single point]
NC(=O)Cc1nc(-c2ccc([N+](=O)[O-])cc2)cs1 | inactive
O=P(Nc1cccc(Cl)c1)(Oc1ccccc1)Oc1ccccc1 | inconclusive: 35.5 µM [inhibitor, single point]
CCOC(=O)c1cc(-c2ccc3c(c2)OCCO3)nc2c1c(C)nn2CCC#N | inconclusive: 3.98 µM [inhibitor, single point]
CCCCN(C)c1ncnc2c1cnn2-c1cccc(Cl)c1 | inconclusive: 0.891 µM [activator, full curve, poor fit]
CCOc1ccc2nc(SCC(=O)N(CCOC)c3c(N)n(Cc4ccccc4)c(=O)[nH]c3=O)[nH]c2c1 | inactive
CC(Cc1ccccc1)NCC(=O)Nc1cc(N(C)C)nc2ccccc12 (stereo not drawn) | inconclusive: 25.1 µM [inhibitor, single point]
O=C(NC1(C(F)(F)F)Oc2ccccc2O1)N1CCCC1 | inconclusive: 29.1 µM [inhibitor, partial curve, poor fit]
Clc1cccc(Cl)c1CSc1nnc([C@@H]2CCCN2)o1 | inactive

Compound | Potency
CCc1ccc2[nH]c3nc(SCC(=O)NNC(=O)c4ccc(C(C)(C)C)cc4)nnc3c2c1 | inconclusive: 29.1 µM [inhibitor, single point]
O=C(Nc1ccccc1)c1ccc(S(=O)(=O)NCc2ccco2)cc1 | inconclusive: 35.5 µM [inhibitor, single point]
CC(C)(C)c1cc(NCCCn2ccnc2)n2ncc(-c3ccccc3)c2n1 | inconclusive: 5.62 µM [inhibitor, single point]
N#Cc1ccccc1NC(=O)C(=O)NCC(c1cccnc1)N1CCc2ccccc2C1 (stereo not drawn) | inconclusive: 4.47 µM [inhibitor, single point]
C=CCOc1ccc(/C=C/C(=O)OCC(=O)NCCCc2ccccc2)cc1 | inconclusive: 11.2 µM [inhibitor, partial curve, poor fit]
COC(=O)c1cc(CNC(=O)c2ccc(O)c(Cl)c2)ccc1OC | inconclusive: 2 µM [activator, partial curve, poor fit]
Cc1c(C(=O)NCCSCc2c(F)cccc2Cl)cnn1-c1ccc(Cl)cc1 | inconclusive: 22.4 µM [inhibitor, partial curve, poor fit]
COC(=O)c1ccc(C(C(=O)NCc2ccccc2)N(Cc2cccs2)C(=O)c2cnccn2)cc1 (stereo not drawn) | inactive
CCC(=O)N1c2nc(C(C)C)nn2C2(CCCCC2)[C@@H]2CCCC[C@@H]21 | inactive
O=C(CN1C(=O)COc2ccc(S(=O)(=O)N3CCCCCC3)cc21)N1CCN(c2ccccc2)CC1 | inactive
CCCCCOc1ccc2oc(=O)c3c(c2c1)CCCN3C(=O)CN1CCCC(C(=O)OCC)C1 (stereo not drawn) | active: 9.2 µM
Cc1ccc(Nc2nnc(SCn3nnc4ccccc4c3=O)s2)cc1 | inactive
CCOC(=O)C1=C(C)NC(=O)CC1c1cc2c(cc1Br)OCO2 (stereo not drawn) | inconclusive: 35.5 µM [inhibitor, single point]
O=C(Nc1ccc(Oc2ccccc2)nc1)C1CCCCN1Cc1cccc(OCCO)c1 (stereo not drawn) | inactive
COc1ccc2cc3c(N)nn(C(=O)C4CCC(C(C)(C)C)CC4)c3nc2c1 (stereo not drawn) | inactive
Cc1cccc(NC(=O)CNC(=O)Cn2ncc(Cl)c(Cl)c2=O)c1C | inconclusive: 35.5 µM [inhibitor, single point]
N/C(=N\OC(=O)C(c1ccccc1)c1ccccc1)c1ccccn1 | inconclusive: 2 µM [inhibitor, partial curve, poor fit]
O=c1[nH]c(-c2ccccn2)nc(C(F)(F)F)c1Br | inconclusive: 35.5 µM [inhibitor, single point]
Cc1cc(C)cc(C(=O)Nc2c3c(nn2-c2ccccc2C)CS(=O)(=O)C3)c1 | inactive
CCOC(=O)c1c(-c2ccccc2)csc1NC(=O)c1cc(-c2cccc(OC)c2)on1 | inconclusive: 12.6 µM [activator, partial curve, poor fit]
Cc1nc(SCC(=O)N2CCN(c3ccccc3)CC2)c2oc3ccccc3c2n1 | inconclusive: 35.5 µM [inhibitor, single point]
O=C(O)c1ccccc1C=NN=C1c2ccccc2-c2ccccc21 | inconclusive: 1.26 µM [activator, full curve, poor fit]
CCOC(=O)c1cnc(SC)nc1N | inactive
CCCC(=O)Nc1cc(-c2cn3cccnc3n2)ccc1OC | inactive
Cc1ccc(C(CC(=O)Nc2ccc(C)cc2C)N2Cc3ccccc3C2=O)cc1 (stereo not drawn) | inconclusive: 1 µM [inhibitor, full curve, poor fit]

Molecules from the list above containing two or more sulfur atoms (two):
Compound | Potency
CCCCNC(=O)CNC(=S)N(Cc1ccccc1)Cc1cccs1 | inconclusive: 25.1 µM [inhibitor, single point]
Cc1ccc(Nc2nnc(SCn3nnc4ccccc4c3=O)s2)cc1 | inactive

4 records drawn at random from the list so far:
Compound | Potency
CCOC(=O)C1=C(C)NC(=O)CC1c1cc2c(cc1Br)OCO2 (stereo not drawn) | inconclusive: 35.5 µM [inhibitor, single point]
Cc1ccc(C(=O)Nc2ccc([N+](=O)[O-])cn2)o1 | inactive
Cc1ccc(Nc2nnc(SCn3nnc4ccccc4c3=O)s2)cc1 | inactive
CCn1c(=O)[nH]c2cc(C(=O)Nc3cc(C)cc(C)c3)ccc2c1=O | inconclusive: 35.5 µM [inhibitor, partial curve, poor fit]

Later entries.

Compound | Potency
COc1ccccc1N1C(=O)C2C(c3ccccc3F)NN(C(=O)c3ccc(C)cc3)C2C1=O (stereo not drawn) | inactive
COc1ccc(C2Nc3ccccc3NC3=C2C(=O)CC(C)(C)C3)cc1O (stereo not drawn) | inconclusive: 1.26 µM [inhibitor, single point]
COC(=O)c1c[nH]c2c1-c1cc(C(=O)OCc3ccccc3)n(S(=O)(=O)c3ccc(C)cc3)c1C(=O)C2=O | inconclusive: 8.91 µM [inhibitor, partial curve, poor fit]
Cc1ccc(C(NC(=O)N2CCCCC2)=C(Cl)Cl)cc1F | inactive
COc1ccc(N2CCN(c3cc(C)nc4ccc(OC)cc34)CC2)cc1 | inconclusive: 22.4 µM [inhibitor, single point]
O=C(COc1ncnc2sccc12)N1CCN(S(=O)(=O)c2ccc(Cl)cc2)CC1 | inactive
CSc1cccc(NC(=O)C(C)Sc2ccc(C)cc2)c1 (stereo not drawn) | inactive
CCCc1oc2ccc(NS(=O)(=O)c3ccc(OC)cc3)cc2c1C(=O)OCC | active: 1 µM
Cc1ccc(-c2[nH]c3ccccc3c2C(C[N+](=O)[O-])c2ccco2)cc1 (stereo not drawn) | inconclusive: 20 µM [inhibitor, single point]
CCN=C1S/C(=C\c2ccc(OCC)c(OC)c2)C(=O)N1CC | inconclusive: 10 µM [inhibitor, partial curve]
O=C(O)C1Cc2c([nH]c3ccccc23)C(c2ccc3c(c2)OCO3)N1 (stereo not drawn) | inactive
O=C(CCCCCN1C(=O)CCC1=O)Nc1ccc(Cl)c(C(F)(F)F)c1 | inactive
Cc1cn2c(=O)cc(COc3cccc(NC(=O)c4cccc(F)c4)c3)nc2s1 | inactive
CC1CC(C)CN(S(=O)(=O)c2ccc(NC(=O)CN3CCCCCC3)cc2)C1 (stereo not drawn) | inconclusive: 22.4 µM [inhibitor, single point]
CC12CCC(=O)N1C(C(=O)Nc1cc(Cl)ccc1N1CCOCC1)CS2 (stereo not drawn) | inactive
Clc1ccc(-c2n[nH]c3c2CCCC3)cc1 | inactive
COc1ccc(NC(=O)COC(=O)C2CC3C=CC2C3)cc1 (stereo not drawn) | inactive
COC(=O)c1sc(NC(=O)COc2ccccc2)nc1C | inactive
Cc1ccc(NC(=O)c2ccco2)c(NC(=O)Cc2cccs2)c1 | inactive
O=C(Nc1nccs1)c1ccc(N2C(=O)C3CCCCC3C2=O)cc1 (stereo not drawn) | inactive
CCOc1ccc2nc(NC(=O)CSC3=NCCS3)sc2c1 | inconclusive: 35.5 µM [inhibitor, single point]
COc1ccc(Cl)cc1NC(=O)C(C)N1Cc2ccccc2C1=O (stereo not drawn) | inactive
CN1CCN(S(=O)(=O)c2ccc(Oc3ccc(Br)cc3F)nc2)CC1 | inconclusive: 22.4 µM [inhibitor, single point]
